Assay results as given in paper PMC6528599.
Negatives hold for the conditions tested. Where a protein sequence is shown, tags need not be part of it.

Biological target: T1, GlaR (YugA) (Lactococcus lactis IL1403) (UniProt Q7DAT6)
T1 sequence (looked up): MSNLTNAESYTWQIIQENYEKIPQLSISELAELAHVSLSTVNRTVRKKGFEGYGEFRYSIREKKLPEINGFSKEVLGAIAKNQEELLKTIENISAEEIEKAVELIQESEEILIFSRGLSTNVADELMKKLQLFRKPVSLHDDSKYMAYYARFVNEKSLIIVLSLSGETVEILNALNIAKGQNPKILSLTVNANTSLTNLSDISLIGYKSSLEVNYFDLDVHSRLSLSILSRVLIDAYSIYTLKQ
Assay: EMSA
Conditions: 250 mM galactose, EMSA: 1 nM DNA, 10 mM Tris-HCl pH 8.5, 10 mM MgCl2, 100 mM KCl, 0.1 mg/ml BSA (printed as 10x binding buffer), 20 ul, 20 min at 37 C, recombinant protein, residues 1-244, probe letters rebuilt from the primers and the genome

“CTTTCATGGGAATCCTCCTTTATACTAAATCTACTTAATTCATAAGTAAATCTACAAAGCTACTGTTTTGCCTTTTGAAACGAGTAATCCTTGGTTGGGAAAACTTTTATTTTGGATAAGTTTTTAAAAGCGAAACAGTCTTCAATTTCATTTTGAAATCGCTCACATTTAGAGTATAACACTTTGATTTAAGAAAGGGTTTCCAATTTTAGCTTATCTTTTGGAAACCCTTTCTATTTTGCTCTTTTTATAAAAAAAAGCTCGATATGACTTGATATCGAAGCATTATTGTTTTAAAGTATAAATGGAGTAAGCATCAATTAG (double strand) [lacS upstream region]”: binds (10 mM MgCl2, bound at 4 uM and also at 1-3.5 uM GlaR).

“CAAGTGGCTCAATCGTTCCATTTTGTAAAGCAAGACTAATAAAATCTTGAATTGATTGATAAATTGACATAAAATACTTTCTAATTTACTTCTGTAAGTAAAGTTCTTGCTTTGTCTTGATTAGTGAGTTTTGGAAATGAATACAAAATTCAAGCACTTAGTTTTGAGTGCTTGAATTTGCTATCACTAATTTAATGTTAACTCACTTAAATCACTCATAAAATTTTTTAAATATTATTTGATTTATTCAACATCCAACTTTGTTGAACCAGAACCAATTTGAGCGACGTAAAAGCTTGCTGGATAACCGACAAC (double strand) [galT upstream region]”: no binding (10 mM MgCl2, 4 uM GlaR).

“CCATTTGTTGCTCTGGCTGAGTCACTGAAGTTTGATTAAACTTTTCCAGTAAAACTAAAGCTTCTTGTTGCTCTTTCCATAATTTTTGATCGTTAGGAAAGTAGAGTTCTTCTGTGTGAACTCGTTTGTAGCTTTCTAATTTAGGCATTTTATCAACTCCTTTTTAAAGCTCTCTTGATTTATGAAAATTAATTATTTACGAAATTTATAAATTCATAAAAACCTTTTTGTCCTACTTCATTATCTTTGAATACTCCGGCATCTTTTAACACCTGTTCAAATACTTCTCCAACTGCTTCCTG (double strand) [thgA upstream region]”: no binding (10 mM MgCl2, 4 uM GlaR).
